According to paper PMC11237027:
These are yes or no findings as the source states them, for the method shown. Binding seen in cells or lysates may run through a third protein. Some binding calls cover weakened binding; strength is not graded here. Tags and fused reporters may be left off the sequences shown.

Biological target: T1, BON-ASSOCIATED PROTEIN2 (BAP2) fused to GST at the N-terminus (Arabidopsis thaliana) (UniProt Q58FX0)
T1 sequence: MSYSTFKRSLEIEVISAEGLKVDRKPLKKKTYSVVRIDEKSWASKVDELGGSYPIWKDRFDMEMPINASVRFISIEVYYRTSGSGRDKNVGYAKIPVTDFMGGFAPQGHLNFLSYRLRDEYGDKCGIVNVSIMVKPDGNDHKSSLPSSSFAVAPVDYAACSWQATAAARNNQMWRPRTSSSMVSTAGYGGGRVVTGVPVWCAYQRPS
Experiment: pull-down; GST fusions from E. coli extracts bound to glutathione agarose (30 min on ice), then incubated with E. coli protein extracts of the His-tagged proteins; equilibration buffer 125 mM Tris-HCl, 150 mM sodium chloride, pH 8.0; Western blot with anti-His and anti-GST; only the target purified

B1: BON1 fused to His6 at the N-terminus (protein, UniProt Q941L3 1-578)
chain: MGNCCSDVASGAGATAGVGGSGSSAALGATNDALDYYLKSKGFNGLFSQIELSFSASNLRDRDVLSKSDPMVVVYQKEKDATLSEVFRSEVVLNSLAPKWIKKFIVAYHFETVQTLVFRVYDVDTKFQNSREEMLKLDEQQFLGEATCALSEIITKSTRTSTLELKRKDGFAPQAQPHHGKLIIHAEESLASKISTEIVFRCSNLESKDLFSKSDPFLVVSKIVEHGTPIPVSKTEVRKNDLNPIWKPVFLSVQQVGSKDSPVIIECSDFNSNGKHSLIGKVQKSLSDLEKLHLAGQGINFSLPTGAGQNKVLKSQLFVDKFTETVHHTFLEYLASGFELNFMVAIDFTASNGNPRLPDSLHYIDPSGRLNAYQRAIMDVGEVLQFYDSDKRFPAWGFGARPIDAPVSHCFNLNGSSSYSEVDGIQGIMTSYTSALFNVSLAGPTLFGPVINAAAMIASASLAQGSRKYYVLLIITDGVITDLQETKDALVSASDLPLSILIVGVGGADFKEMEILDADKGERLESSSGRLASRDIVQFVALRDVQYGEISVVQALLAELPSQFLTYMRIRNMKPIPP
binding: binds
